The nature of the data set: general procedure: Fmoc solid-phase peptide synthesis; Rink amide MBHA resin; HBTU/DIPEA; HATU/DIPEA. The settings on record: whole synthesis.

Numbered stars: 1 amine (or outer) side, 2 acyl side, 3 side chain; on linkers, the order of the positions; unused ones are H or OH. Bridge positions count the residues as written; N and C are the ends. Square brackets hold non-standard residues; d marks the D form. CO = O=C([*:1])[*:2]; Nlys = NCCCCNCC(=O)O

As to “H-W[Nlys]QKR[Nlys]A-NH2 (linker 2-6 via CO; SMILES C[C@H](NC(=O)CN1CCCCNC(=O)NCCCCN(C(=O)[C@@H](N)Cc2c[nH]c3ccccc23)CC(=O)N[C@@H](CCC(N)=O)C(=O)N[C@@H](CCCCN)C(=O)N[C@@H](CCCNC(=N)N)C1=O)C(N)=O)”, the “final HPLC purity” value is given as above 95%.

The values are drawn from patent US9555086B2 (The Regents of the University of Michigan, priority 2010, dated 2017).
